Results reported in article PMC12153694.
These are yes or no findings as the source states them, for the method shown. In cells and extracts the contact can be indirect. These calls come from enrichment with a bait or labelling near it, and not all partners need be listed. No binding means not detected with the bait.

Protein sequences, listed by entry. Tags and fused reporters are not part of them. Residues count along the entry.
UniProt P14735, residues 42-1019: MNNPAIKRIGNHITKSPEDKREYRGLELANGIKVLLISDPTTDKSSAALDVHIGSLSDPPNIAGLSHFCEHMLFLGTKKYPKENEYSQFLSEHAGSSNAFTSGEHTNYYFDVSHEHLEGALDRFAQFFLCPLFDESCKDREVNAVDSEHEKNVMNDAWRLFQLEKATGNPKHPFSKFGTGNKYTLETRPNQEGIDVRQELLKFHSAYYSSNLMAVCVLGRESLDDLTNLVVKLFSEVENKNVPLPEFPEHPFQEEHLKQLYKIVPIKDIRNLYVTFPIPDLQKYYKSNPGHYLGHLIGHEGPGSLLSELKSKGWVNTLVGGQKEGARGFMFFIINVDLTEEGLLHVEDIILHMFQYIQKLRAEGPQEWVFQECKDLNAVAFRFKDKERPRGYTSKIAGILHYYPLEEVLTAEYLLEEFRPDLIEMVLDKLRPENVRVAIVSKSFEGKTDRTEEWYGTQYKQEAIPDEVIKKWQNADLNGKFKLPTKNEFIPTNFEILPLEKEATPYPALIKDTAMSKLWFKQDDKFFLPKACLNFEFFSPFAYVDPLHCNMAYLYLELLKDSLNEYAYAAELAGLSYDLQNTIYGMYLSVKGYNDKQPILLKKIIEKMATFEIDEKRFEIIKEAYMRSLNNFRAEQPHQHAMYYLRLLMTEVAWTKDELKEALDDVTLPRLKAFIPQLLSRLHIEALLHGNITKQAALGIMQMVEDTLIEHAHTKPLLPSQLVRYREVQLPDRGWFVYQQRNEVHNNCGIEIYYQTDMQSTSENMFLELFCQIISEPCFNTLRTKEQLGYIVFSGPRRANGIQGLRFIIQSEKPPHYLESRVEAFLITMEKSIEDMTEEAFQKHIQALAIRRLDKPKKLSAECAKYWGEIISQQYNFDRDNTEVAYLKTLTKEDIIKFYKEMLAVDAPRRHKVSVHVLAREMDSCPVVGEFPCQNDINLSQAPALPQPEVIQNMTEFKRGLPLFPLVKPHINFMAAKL
UniProt A5YKK6: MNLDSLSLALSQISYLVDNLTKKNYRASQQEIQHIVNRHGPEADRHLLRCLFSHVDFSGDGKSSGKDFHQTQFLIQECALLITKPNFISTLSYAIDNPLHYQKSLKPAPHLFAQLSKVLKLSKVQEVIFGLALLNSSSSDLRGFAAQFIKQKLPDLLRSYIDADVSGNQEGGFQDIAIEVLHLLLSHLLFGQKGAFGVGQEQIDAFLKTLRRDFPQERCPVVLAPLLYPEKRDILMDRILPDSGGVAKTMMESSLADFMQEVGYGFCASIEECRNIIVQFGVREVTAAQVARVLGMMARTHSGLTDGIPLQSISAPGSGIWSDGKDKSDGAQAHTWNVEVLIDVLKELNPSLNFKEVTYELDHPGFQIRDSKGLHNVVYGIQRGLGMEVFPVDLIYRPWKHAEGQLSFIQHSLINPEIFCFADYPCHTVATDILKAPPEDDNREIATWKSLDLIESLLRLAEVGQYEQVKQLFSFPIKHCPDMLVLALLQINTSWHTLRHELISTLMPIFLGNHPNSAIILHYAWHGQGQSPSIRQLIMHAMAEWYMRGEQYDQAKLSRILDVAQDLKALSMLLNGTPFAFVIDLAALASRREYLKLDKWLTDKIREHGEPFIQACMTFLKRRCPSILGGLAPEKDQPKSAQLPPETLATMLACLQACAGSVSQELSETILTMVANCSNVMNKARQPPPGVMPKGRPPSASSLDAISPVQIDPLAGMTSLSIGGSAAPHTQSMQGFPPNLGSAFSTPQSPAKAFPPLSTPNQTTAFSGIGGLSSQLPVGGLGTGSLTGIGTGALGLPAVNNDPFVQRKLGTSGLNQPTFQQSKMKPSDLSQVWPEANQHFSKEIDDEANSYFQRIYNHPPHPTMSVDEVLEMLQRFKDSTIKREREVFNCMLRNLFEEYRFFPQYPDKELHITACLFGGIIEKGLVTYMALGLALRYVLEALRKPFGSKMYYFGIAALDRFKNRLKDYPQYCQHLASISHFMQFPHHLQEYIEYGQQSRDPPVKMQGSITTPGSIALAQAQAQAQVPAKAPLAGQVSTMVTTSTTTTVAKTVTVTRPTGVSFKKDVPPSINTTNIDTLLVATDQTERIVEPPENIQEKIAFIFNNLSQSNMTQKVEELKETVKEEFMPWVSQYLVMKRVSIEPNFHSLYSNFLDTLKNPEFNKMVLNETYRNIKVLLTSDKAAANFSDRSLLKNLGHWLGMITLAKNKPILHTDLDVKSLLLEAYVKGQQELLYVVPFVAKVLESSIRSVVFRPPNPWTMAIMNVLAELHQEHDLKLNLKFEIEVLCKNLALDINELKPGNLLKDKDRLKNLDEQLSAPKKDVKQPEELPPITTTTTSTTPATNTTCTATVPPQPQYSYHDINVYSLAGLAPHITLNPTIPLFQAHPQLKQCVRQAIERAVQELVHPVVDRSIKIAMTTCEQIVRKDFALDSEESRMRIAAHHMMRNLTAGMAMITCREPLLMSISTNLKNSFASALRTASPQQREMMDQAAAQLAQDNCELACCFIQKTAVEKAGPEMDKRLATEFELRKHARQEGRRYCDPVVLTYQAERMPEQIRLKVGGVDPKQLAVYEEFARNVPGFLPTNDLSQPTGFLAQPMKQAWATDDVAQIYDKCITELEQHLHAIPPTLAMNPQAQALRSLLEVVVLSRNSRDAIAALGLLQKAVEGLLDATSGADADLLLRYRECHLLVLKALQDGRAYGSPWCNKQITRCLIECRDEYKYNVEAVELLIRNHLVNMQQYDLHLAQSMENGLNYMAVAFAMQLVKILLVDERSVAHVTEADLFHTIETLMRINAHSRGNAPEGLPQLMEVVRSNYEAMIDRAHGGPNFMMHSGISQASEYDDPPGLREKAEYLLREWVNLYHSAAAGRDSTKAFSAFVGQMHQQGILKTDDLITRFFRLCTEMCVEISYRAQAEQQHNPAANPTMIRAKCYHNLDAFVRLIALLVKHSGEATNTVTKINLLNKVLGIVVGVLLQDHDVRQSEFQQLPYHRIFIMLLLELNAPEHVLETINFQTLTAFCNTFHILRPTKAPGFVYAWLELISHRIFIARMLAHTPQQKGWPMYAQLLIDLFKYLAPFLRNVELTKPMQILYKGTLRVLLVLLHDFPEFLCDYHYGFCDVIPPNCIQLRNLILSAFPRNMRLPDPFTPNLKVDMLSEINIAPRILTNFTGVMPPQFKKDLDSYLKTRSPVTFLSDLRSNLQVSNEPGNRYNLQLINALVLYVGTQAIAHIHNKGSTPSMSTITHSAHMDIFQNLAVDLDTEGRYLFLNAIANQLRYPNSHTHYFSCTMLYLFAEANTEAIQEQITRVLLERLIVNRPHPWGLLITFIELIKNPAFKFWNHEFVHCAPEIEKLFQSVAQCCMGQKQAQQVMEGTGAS

Biological target: cytoplasmic form of human IDE fused with V5tagTurboID (human) (UniProt P14735)
Assay: proximity labelling; TurboID fused to cytosolic IDE in HEK293 cells, 10 min with 50 uM biotin; biotinylated proteins purified on streptavidin magnetic beads and identified by nanoLC-MS/MS; compared with Cyto-TurboID cells plus biotin and Cyto-IDE cells without biotin; four replicates

CNOT1, scaffold subunit of CCR4-NOT (from UniProt A5YKK6 1-2376)
binding: no binding
